Measured values as given in the supplement of paper PMC10849652.
The list shows a part of the results.

Amino acid sequences for entries named in this document (tags omitted). A change or cut given only in a name is not applied to a line headed by its entry.
UniProt Q15004: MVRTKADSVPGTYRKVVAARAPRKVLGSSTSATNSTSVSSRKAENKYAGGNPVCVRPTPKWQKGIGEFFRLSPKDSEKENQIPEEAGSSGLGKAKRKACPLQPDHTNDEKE
UniProt Q8WW12: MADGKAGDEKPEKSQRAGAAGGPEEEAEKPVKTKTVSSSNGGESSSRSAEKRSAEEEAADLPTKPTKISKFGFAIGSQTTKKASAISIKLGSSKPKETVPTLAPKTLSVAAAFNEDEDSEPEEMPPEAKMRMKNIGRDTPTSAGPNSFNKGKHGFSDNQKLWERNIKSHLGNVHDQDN
UniProt P61457: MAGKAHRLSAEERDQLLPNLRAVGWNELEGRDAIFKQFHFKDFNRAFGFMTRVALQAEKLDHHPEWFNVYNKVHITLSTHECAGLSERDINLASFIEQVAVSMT
UniProt O95613: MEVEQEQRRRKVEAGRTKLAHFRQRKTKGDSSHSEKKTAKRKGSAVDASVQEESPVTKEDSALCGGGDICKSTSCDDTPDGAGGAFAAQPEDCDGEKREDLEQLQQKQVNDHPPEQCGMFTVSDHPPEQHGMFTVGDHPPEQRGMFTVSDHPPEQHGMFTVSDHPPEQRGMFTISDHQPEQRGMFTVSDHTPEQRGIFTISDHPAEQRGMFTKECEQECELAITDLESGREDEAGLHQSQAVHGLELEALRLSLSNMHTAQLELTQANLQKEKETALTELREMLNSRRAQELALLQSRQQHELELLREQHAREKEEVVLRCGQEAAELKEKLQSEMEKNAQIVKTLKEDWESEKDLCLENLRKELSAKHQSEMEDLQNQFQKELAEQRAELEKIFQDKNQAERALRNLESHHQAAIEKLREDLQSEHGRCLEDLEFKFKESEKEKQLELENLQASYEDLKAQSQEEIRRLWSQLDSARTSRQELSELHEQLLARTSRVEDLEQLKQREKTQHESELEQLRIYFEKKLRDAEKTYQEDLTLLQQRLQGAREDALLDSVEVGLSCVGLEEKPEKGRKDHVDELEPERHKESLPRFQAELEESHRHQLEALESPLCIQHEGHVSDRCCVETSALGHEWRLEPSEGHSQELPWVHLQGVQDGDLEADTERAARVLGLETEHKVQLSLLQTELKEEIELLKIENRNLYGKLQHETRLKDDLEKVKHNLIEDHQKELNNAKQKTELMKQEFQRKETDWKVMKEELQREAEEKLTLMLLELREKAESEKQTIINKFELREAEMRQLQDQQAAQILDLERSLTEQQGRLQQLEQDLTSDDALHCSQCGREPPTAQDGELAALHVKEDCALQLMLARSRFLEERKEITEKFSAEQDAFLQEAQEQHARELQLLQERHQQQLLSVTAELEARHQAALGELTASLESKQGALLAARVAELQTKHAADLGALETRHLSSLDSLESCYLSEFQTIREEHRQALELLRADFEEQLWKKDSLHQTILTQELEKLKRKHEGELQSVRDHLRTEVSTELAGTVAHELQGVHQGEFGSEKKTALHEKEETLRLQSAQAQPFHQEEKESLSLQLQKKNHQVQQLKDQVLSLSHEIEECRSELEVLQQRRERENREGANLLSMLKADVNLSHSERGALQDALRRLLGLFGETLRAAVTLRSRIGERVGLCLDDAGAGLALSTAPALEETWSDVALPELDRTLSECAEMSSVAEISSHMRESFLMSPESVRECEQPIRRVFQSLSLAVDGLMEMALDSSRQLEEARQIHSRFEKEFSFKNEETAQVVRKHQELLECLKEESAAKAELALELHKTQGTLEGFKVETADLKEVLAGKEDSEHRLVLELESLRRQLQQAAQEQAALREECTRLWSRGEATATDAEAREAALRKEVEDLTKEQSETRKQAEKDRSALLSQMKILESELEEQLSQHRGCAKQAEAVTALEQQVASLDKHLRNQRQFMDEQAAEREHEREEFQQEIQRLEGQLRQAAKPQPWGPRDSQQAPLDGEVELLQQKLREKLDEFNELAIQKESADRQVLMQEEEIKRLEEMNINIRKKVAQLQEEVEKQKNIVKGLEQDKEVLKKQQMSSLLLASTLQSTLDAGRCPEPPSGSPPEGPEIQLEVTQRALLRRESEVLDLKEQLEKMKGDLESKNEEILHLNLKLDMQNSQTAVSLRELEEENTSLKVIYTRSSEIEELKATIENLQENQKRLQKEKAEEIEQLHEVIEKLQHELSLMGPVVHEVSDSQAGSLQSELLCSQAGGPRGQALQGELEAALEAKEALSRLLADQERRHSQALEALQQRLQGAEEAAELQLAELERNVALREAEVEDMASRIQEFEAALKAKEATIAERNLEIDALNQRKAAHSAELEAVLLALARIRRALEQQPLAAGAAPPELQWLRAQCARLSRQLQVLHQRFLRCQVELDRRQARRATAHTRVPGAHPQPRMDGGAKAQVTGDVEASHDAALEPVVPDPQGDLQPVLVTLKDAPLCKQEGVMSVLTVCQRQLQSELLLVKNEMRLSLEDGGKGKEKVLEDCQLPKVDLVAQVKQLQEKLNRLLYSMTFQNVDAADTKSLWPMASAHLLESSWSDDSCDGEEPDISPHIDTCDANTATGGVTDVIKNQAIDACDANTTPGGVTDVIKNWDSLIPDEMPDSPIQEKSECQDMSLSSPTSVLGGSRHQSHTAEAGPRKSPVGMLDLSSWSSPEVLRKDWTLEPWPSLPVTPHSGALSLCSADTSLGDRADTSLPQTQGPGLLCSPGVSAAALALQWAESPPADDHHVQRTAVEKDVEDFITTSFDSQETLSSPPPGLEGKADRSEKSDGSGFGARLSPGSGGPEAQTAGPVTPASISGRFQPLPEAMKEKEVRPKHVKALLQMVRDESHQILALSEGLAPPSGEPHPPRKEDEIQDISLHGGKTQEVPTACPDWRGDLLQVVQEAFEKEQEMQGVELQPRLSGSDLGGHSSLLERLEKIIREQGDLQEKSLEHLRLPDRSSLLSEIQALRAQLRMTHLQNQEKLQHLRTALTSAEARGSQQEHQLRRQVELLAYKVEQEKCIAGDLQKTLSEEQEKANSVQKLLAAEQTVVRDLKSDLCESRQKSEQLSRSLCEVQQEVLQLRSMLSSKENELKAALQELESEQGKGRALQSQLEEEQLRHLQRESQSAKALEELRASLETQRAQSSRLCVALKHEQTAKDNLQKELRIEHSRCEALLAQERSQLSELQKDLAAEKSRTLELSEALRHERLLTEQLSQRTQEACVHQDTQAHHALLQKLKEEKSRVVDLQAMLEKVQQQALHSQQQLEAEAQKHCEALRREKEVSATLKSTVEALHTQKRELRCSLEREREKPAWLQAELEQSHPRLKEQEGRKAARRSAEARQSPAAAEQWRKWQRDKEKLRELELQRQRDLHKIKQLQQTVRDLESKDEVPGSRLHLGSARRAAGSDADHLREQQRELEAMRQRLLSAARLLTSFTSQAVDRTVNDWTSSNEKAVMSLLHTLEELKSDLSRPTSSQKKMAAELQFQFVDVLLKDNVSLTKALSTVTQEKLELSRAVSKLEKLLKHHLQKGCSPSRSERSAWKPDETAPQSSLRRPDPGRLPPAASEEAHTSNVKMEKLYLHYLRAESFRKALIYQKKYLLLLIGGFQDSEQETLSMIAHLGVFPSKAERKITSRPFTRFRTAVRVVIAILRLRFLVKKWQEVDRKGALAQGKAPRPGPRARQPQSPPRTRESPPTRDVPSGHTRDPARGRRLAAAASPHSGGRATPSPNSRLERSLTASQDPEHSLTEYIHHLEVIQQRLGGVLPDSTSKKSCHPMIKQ
UniProt Q8WUM4: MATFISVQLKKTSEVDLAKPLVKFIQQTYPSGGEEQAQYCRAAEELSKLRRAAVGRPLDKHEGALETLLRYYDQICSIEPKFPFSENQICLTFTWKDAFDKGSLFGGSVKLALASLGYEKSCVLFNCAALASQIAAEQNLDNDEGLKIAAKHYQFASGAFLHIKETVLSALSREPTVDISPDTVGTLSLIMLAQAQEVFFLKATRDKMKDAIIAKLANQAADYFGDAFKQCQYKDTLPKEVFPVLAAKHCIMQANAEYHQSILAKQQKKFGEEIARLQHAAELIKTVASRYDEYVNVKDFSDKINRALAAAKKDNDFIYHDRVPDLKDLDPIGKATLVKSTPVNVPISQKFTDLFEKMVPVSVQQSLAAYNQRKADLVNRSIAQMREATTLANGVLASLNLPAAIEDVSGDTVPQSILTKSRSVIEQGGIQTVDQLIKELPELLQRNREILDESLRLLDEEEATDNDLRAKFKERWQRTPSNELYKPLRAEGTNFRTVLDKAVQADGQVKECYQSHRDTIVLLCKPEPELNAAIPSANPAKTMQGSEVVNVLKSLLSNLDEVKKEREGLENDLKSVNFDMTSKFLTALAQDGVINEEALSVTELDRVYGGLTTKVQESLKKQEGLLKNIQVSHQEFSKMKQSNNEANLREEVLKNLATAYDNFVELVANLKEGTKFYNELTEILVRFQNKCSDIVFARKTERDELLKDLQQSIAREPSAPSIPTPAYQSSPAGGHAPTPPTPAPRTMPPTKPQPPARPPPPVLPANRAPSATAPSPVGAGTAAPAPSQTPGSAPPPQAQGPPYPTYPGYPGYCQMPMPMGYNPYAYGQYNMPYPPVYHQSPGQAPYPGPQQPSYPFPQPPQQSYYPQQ
UniProt Q9BZ23: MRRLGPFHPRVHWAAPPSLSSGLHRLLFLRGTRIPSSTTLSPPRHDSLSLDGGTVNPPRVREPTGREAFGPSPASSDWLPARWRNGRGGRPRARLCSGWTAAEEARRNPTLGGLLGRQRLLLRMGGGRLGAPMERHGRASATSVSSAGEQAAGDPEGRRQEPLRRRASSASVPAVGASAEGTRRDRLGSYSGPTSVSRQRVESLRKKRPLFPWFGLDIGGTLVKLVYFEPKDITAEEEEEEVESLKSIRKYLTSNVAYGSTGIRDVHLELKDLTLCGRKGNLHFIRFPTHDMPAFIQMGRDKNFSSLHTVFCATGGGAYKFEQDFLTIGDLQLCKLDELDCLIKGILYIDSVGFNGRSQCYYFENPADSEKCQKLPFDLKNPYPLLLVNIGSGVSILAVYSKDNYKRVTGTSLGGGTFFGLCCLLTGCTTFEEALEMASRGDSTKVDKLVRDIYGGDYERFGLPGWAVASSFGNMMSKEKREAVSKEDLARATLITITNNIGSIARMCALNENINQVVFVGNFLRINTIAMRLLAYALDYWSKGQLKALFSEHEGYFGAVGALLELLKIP
UniProt Q99447: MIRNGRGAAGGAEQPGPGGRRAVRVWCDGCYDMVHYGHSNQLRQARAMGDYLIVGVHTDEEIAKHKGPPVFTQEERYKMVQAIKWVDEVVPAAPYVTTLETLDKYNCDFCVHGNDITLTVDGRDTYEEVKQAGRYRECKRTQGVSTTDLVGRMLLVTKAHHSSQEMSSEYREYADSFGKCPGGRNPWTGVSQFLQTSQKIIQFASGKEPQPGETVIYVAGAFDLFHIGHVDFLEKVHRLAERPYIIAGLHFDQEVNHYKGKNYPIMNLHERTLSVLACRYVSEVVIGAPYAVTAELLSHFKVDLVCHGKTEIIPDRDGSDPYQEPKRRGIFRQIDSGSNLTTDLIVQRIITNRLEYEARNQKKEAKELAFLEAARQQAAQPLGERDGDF
UniProt Q9H0N5: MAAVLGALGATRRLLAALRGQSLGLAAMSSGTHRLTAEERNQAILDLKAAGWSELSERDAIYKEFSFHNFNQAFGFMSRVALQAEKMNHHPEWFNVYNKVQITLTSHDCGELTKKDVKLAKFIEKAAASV
UniProt P35227: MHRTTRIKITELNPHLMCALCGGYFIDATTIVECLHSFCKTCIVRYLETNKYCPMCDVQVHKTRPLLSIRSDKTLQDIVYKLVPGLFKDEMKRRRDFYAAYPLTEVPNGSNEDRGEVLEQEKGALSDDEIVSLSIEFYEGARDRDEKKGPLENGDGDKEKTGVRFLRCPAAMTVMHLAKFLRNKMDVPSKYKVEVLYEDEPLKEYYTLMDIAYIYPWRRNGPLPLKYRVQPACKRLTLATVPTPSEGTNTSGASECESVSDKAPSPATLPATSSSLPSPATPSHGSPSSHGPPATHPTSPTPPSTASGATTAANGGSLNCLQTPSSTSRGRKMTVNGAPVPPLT
UniProt O15530: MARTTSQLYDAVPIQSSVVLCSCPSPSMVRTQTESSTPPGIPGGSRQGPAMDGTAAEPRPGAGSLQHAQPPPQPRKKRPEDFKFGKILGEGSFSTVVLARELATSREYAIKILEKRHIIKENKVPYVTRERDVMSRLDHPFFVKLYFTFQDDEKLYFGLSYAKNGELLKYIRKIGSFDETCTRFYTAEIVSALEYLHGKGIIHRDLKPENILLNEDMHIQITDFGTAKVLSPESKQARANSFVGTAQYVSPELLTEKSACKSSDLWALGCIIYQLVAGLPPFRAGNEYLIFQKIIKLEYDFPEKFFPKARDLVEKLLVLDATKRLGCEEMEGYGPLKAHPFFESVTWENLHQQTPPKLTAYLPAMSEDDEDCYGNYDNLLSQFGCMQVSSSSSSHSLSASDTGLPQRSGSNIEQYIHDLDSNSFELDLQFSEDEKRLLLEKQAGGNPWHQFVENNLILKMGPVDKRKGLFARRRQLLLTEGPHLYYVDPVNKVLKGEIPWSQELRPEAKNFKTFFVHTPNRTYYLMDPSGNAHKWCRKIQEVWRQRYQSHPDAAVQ

How the values were obtained:
Assay in all cases: log2 fold change, soluble protein after heating vs DMSO (PISA); higher = thermal stabilisation; K562 cells, 10 uM, 30 min; active = over 0.2 and 3.5 SD of the protein, either way, in both replicates (recomputed)
bafetinib = compound: Cc1ccc(NC(=O)c2ccc(CN3CC[C@H](N(C)C)C3)c(C(F)(F)F)c2)cc1Nc1nccc(-c2cncnc2)n1 [bafetinib]
How it was run: (§1)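 Values are thermal stability changes relative to control samples and are taken from duplicates. They are stated as log2 fold changes. Before quantification by TMTpro 16plex LC-MS/MS with equalised channel sums, K562 cells at 2×10^6 cells/mL were treated with 10 μM compound for 30 min, heated in aliquots for 3 min across 48°C-58°C, pooled, extracted in PBS with 0.5% NP-40 at 4°C, and centrifuged at 21,000xg for 90 min to give the soluble supernatant.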

[1] = compound: Cc1cccc(CC(=O)N2CCc3c2ccc(-c2cn(C)c4ncnc(N)c24)c3F)n1
How it was run: as §1

nilotinib = compound: Cc1cn(-c2cc(NC(=O)c3ccc(C)c(Nc4nccc(-c5cccnc5)n4)c3)cc(C(F)(F)F)c2)cn1 [nilotinib]
How it was run: as §1

[2] = compound: Cc1nc(Nc2n[nH]c3c2CN(C(=O)N[C@H](CN(C)C)c2ccccc2)C3(C)C)c2sccc2n1
How it was run: as §1

dasatinib = compound: Cc1nc(Nc2ncc(C(=O)Nc3c(C)cccc3Cl)s2)cc(N2CCN(CCO)CC2)n1 [dasatinib]
How it was run: as §1

[3] = compound: Cc1ncc(-c2ccnc(Nc3ccc(S(C)(=O)=O)cc3)n2)n1C(C)C
How it was run: as §1

[4] = compound: Cn1cc(-c2ccc3c(c2)CCN3C(=O)Cc2cccc(C(F)(F)F)c2)c2c(N)ncnc21
How it was run: as §1

[5] = compound: Cn1cc(-c2ccc3nnc(C(F)(F)c4ccc5ncccc5c4)n3n2)cn1
How it was run: as §1

tipifarnib = compound: Cn1cncc1[C@@](N)(c1ccc(Cl)cc1)c1ccc2c(c1)c(-c1cccc(Cl)c1)cc(=O)n2C [tipifarnib]
How it was run: as §1

mubritinib = compound: FC(F)(F)c1ccc(/C=C/c2nc(COc3ccc(CCCCn4ccnn4)cc3)co2)cc1 [mubritinib]
How it was run: as §1

Target	log2 fold change (bafetinib)	log2 fold change [1]	log2 fold change (nilotinib)	log2 fold change [2]	log2 fold change (dasatinib)	log2 fold change [3]	log2 fold change [4]	log2 fold change [5]	log2 fold change (tipifarnib)	log2 fold change (mubritinib)
PDSS1 (UniProt Q5T2R2)	inactive: -0.009	inactive: 0.026	inactive: -0.019	inactive: 0.028	inactive: -0.08	inactive: -0.042	inactive: 0.138	inactive: -0.031	inactive: 0.072	inactive: 0.034
PELP1 (UniProt Q8IZL8)	inactive: 0.005	inactive: -0.115	inactive: -0.007	inactive: 0.007	inactive: 0.004	inactive: -0.047	inactive: 0.064	inactive: -0.034	inactive: 0.063	inactive: -0.009
PCLAF (UniProt Q15004)	inactive: -0.015	inactive: -0.1	inactive: -0.027	inactive: 0.105	inactive: 0.065	inactive: -0.081	inactive: -0.112	inactive: -0.069	inactive: -0.019	inactive: -0.095
PCNP (UniProt Q8WW12)	inactive: -0.036	inactive: -0.036	inactive: 0.041	inactive: 0.01	inactive: 0.081	inactive: 0.025	inactive: -0.005	inactive: 0.01	inactive: -0.035	inactive: 0.022
PCNA (UniProt P12004)	inactive: -0.027	inactive: -0.013	inactive: 0.012	inactive: -0.05	inactive: 0.035	inactive: 0.014	inactive: 0.018	inactive: 0.01	inactive: -0.006	inactive: 0.043
PDS5B (UniProt Q9NTI5)	inactive: 0.041	inactive: -0.139	inactive: -0.314	inactive: 0.04	inactive: -0.244	inactive: -0.031	inactive: 0.038	inactive: 0.147	inactive: 0.054	inactive: 0.127
PASK (UniProt Q96RG2)	inactive: 0.001	inactive: 0.034	inactive: -0.024	inactive: -0.01	inactive: -0.068	inactive: -0.031	inactive: 0.013	inactive: -0.035	inactive: -0.062	inactive: 0.068
PES1 (UniProt O00541)	inactive: 0.071	inactive: 0.003	inactive: -0.061	inactive: 0.157	inactive: 0.032	inactive: 0.079	inactive: -0.081	inactive: -0.172	inactive: 0.091	inactive: -0.047
PELO (UniProt Q9BRX2)	inactive: 0.068	inactive: 0.155	inactive: -0.021	inactive: -0.067	inactive: -0.054	inactive: -0.02	inactive: 0.042	inactive: 0.061	inactive: -0.136	inactive: -0.111
PCBD1 (UniProt P61457)	inactive: -0.07	inactive: -0.021	inactive: 0.019	inactive: 0.009	inactive: 0.069	inactive: -0.019	inactive: 0.045	inactive: 0.087	inactive: -0.003	inactive: 0.003
PAK4 (UniProt O96013)	inactive: -0.072	inactive: 0.011	inactive: -0.016	active: 0.352	inactive: -0.068	inactive: 0.01	inactive: 0.04	inactive: 0.007	inactive: 0.015	inactive: -0.092
PARL (UniProt Q9H300)	inactive: -0.169	inactive: 0.061	inactive: 0.047	inactive: -0.011	inactive: 0.015	inactive: 0.018	inactive: 0.017	inactive: 0.051	inactive: -0.023	inactive: 0.021
PAK1IP1 (UniProt Q9NWT1)	inactive: 0.364	inactive: 0.009	inactive: 0.035	inactive: 0.21	inactive: 0.196	inactive: 0.046	inactive: -0.308	inactive: -0.175	inactive: 0.168	inactive: -0.137
PECAM1 (UniProt P16284)	inactive: -0.075	inactive: -0.011	inactive: 0.087	inactive: 0.097	inactive: 0.031	inactive: 0	inactive: -0.019	inactive: -0.013	inactive: 0.015	inactive: 0.022
PCNT (UniProt O95613)	inactive: -0.227	inactive: -0.324	inactive: -0.117	inactive: 0.045	inactive: 0.085	inactive: -0.002	inactive: -0.076	inactive: 0.107	inactive: 0.127	inactive: -0.004
PCYOX1L (UniProt Q8NBM8)	inactive: -0.006	inactive: 0.013	inactive: 0.005	inactive: 0.041	inactive: 0.053	inactive: -0.032	inactive: 0.085	inactive: 0.029	inactive: 0.044	inactive: 0.013
PDLIM5 (UniProt Q96HC4)	inactive: -0.039	inactive: 0.024	inactive: 0.019	inactive: -0.011	inactive: -0.038	inactive: -0.005	inactive: 0.026	inactive: -0.03	inactive: -0.023	inactive: 0.051
PDCD6IP (UniProt Q8WUM4)	inactive: 0.042	inactive: 0.157	inactive: -0.116	inactive: -0.205	inactive: -0.283	inactive: 0.069	inactive: 0.016	inactive: 0.068	inactive: -0.221	inactive: 0.105
PALMD (UniProt Q9NP74)	inactive: 0.019	inactive: -0.016	inactive: 0.029	inactive: -0.076	inactive: 0.042	inactive: 0.064	inactive: -0.012	inactive: -0.076	inactive: 0.059	inactive: -0.086
PANK2 (UniProt Q9BZ23)	inactive: -0.032	inactive: -0.049	inactive: -0.025	inactive: 0.016	inactive: 0.015	inactive: 0.001	inactive: 0.096	inactive: 0.018	inactive: 0.005	inactive: -0.155
PCYT2 isoform 3 (UniProt Q99447)	inactive: -0.011	inactive: 0.011	inactive: -0.016	inactive: 0.033	inactive: -0.037	inactive: 0.027	inactive: 0.041	inactive: 0.038	inactive: -0.117	inactive: 0.017
PEPD (UniProt P12955)	inactive: 0.006	inactive: -0.07	inactive: 0.003	inactive: -0.02	inactive: 0.065	inactive: 0.039	inactive: 0.023	inactive: 0.016	inactive: -0.059	inactive: -0.002
PEX13 (UniProt Q92968)	inactive: -0.159	inactive: 0.106	inactive: -0.046	inactive: 0	inactive: 0.014	inactive: 0.035	inactive: -0.071	inactive: -0.075	inactive: -0.027	inactive: 0.042
PDE4DIP isoform 4 (UniProt Q5VU43)	inactive: 0.022	inactive: -0.071	inactive: -0.054	inactive: -0.113	inactive: 0.037	inactive: -0.027	inactive: 0.021	inactive: 0.021	inactive: 0.038	inactive: 0.022
PCBD2 (UniProt Q9H0N5)	inactive: -0.019	inactive: -0.002	inactive: 0.023	inactive: 0.01	inactive: 0.041	inactive: -0.004	inactive: 0.04	inactive: 0.081	inactive: 0.003	inactive: 0.084
PAFAH1B3 (UniProt Q15102)	inactive: 0.003	inactive: 0.058	inactive: 0.008	inactive: -0.031	inactive: -0.065	inactive: -0.011	inactive: 0.192	inactive: 0.039	inactive: -0.163	inactive: 0.075
PBK (UniProt Q96KB5)	inactive: 0.064	inactive: 0.064	inactive: -0.053	inactive: -0.152	inactive: -0.084	inactive: 0.078	inactive: -0.004	inactive: 0.059	inactive: -0.067	inactive: -0.06
PCGF2 (UniProt P35227)	inactive: 0.015	inactive: -0.035	inactive: -0.097	inactive: -0.235	inactive: -0.127	inactive: 0.028	inactive: 0.004	inactive: 0.081	inactive: 0.001	inactive: -0.001
PDE2A (UniProt O00408)	inactive: 0.021	inactive: -0.02	inactive: 0.023	inactive: 0.016	inactive: -0.103	inactive: -0.012	inactive: 0.063	inactive: -0.03	inactive: -0.031	inactive: -0.051
PDPK1 (UniProt O15530)	inactive: -0.06	inactive: 0.051	inactive: -0.104	inactive: 0.089	inactive: -0.169	inactive: -0.084	inactive: 0.077	inactive: 0.011	inactive: -0.043	inactive: 0.022

Part of the list above, as a markdown table:

| Target | log2 fold change (bafetinib) | log2 fold change [1] | log2 fold change (nilotinib) | log2 fold change [2] | log2 fold change (dasatinib) | log2 fold change [3] | log2 fold change [4] | log2 fold change [5] | log2 fold change (tipifarnib) | log2 fold change (mubritinib) |
| --- | --- | --- | --- | --- | --- | --- | --- | --- | --- | --- |
| PEX13 (UniProt Q92968) | inactive: -0.159 | inactive: 0.106 | inactive: -0.046 | inactive: 0 | inactive: 0.014 | inactive: 0.035 | inactive: -0.071 | inactive: -0.075 | inactive: -0.027 | inactive: 0.042 |
| PDE4DIP isoform 4 (UniProt Q5VU43) | inactive: 0.022 | inactive: -0.071 | inactive: -0.054 | inactive: -0.113 | inactive: 0.037 | inactive: -0.027 | inactive: 0.021 | inactive: 0.021 | inactive: 0.038 | inactive: 0.022 |
| PCBD2 (UniProt Q9H0N5) | inactive: -0.019 | inactive: -0.002 | inactive: 0.023 | inactive: 0.01 | inactive: 0.041 | inactive: -0.004 | inactive: 0.04 | inactive: 0.081 | inactive: 0.003 | inactive: 0.084 |
| PAFAH1B3 (UniProt Q15102) | inactive: 0.003 | inactive: 0.058 | inactive: 0.008 | inactive: -0.031 | inactive: -0.065 | inactive: -0.011 | inactive: 0.192 | inactive: 0.039 | inactive: -0.163 | inactive: 0.075 |
| PBK (UniProt Q96KB5) | inactive: 0.064 | inactive: 0.064 | inactive: -0.053 | inactive: -0.152 | inactive: -0.084 | inactive: 0.078 | inactive: -0.004 | inactive: 0.059 | inactive: -0.067 | inactive: -0.06 |
| PCGF2 (UniProt P35227) | inactive: 0.015 | inactive: -0.035 | inactive: -0.097 | inactive: -0.235 | inactive: -0.127 | inactive: 0.028 | inactive: 0.004 | inactive: 0.081 | inactive: 0.001 | inactive: -0.001 |
| PDE2A (UniProt O00408) | inactive: 0.021 | inactive: -0.02 | inactive: 0.023 | inactive: 0.016 | inactive: -0.103 | inactive: -0.012 | inactive: 0.063 | inactive: -0.03 | inactive: -0.031 | inactive: -0.051 |
| PDPK1 (UniProt O15530) | inactive: -0.06 | inactive: 0.051 | inactive: -0.104 | inactive: 0.089 | inactive: -0.169 | inactive: -0.084 | inactive: 0.077 | inactive: 0.011 | inactive: -0.043 | inactive: 0.022 |
